Taken from: PubChem BioAssay AID1259279 (Sanger Institute, 2017)
Aim: 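Kinases that colorectal cancer cells need to survive, alone or with drugs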 (primary screen). System: LS180 human colorectal cancer cells. Reagents: siRNA pool against human genes. Challenge: anchor drug BYL719 at 1 µM, cetuximab at 5 µg/ml or trametinib at 10 nM, or DMSO vehicle only. Read-out: 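Cell viability versus a non-targeting pool, as a fraction and as a robust z-score from replicate means, plus a synergy score for each of three drugs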. Scale: viability z-score, no drug: higher = more viable cells after knock-down; viability, no drug: higher = more viable cells; synergy score with BYL719: higher = stronger synthetic lethal synergy with drug. Hit rule: 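Essential (active) calls need a no-drug viability z-score lower than -3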. Calls: active = essential (knock-down alone cuts viability); inactive = no change without drug.
The whole screen tested 794 reagents; below is an unselected part. 11 of all reagents (1.4%) count as active. 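Calls reflect knock-down alone in the vehicle arm, not drug synergy.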 No viability above 1 is reported: the scale is capped. Further read-outs or replicates are left out here. Not stated in the record: the amount of reagent, the time to read-out.

Gene,"viability z-score, no drug","viability, no drug (fraction)",synergy score with BYL719,call
NR4A2,-2.69,0.613,-0.0942,inactive
EEF2K,0.592,0.971,0.124,inactive
CALM2,-1.12,0.785,-0.0564,inactive
GUK1,-0.926,0.805,-0.169,inactive
MAPK9,0.492,0.96,-0.109,inactive
NEK4,-0.12,0.893,-0.105,inactive
SPHK2,-0.29,0.875,-0.0775,inactive
SRMS,-0.441,0.858,0.105,inactive
BUB1,0.86,1,0.00692,inactive
SHPK,-0.735,0.826,-0.34,inactive
AK3,0.86,1,0.0765,inactive
N4BP2,0.86,1,-0.0749,inactive
FBXW7,0.447,0.955,-0.034,inactive
RBM10,-2.37,0.647,-0.0888,inactive
FN1,0.707,0.983,-0.0537,inactive
DDR2,0.744,0.987,-0.0664,inactive
EFNB3,-2.34,0.651,-0.0998,inactive
PFKFB4,0.431,0.953,-0.164,inactive
TSSK1B,0.244,0.933,-0.149,inactive
EIF2AK4,0.562,0.968,-0.169,inactive
NTRK3,0.86,1,-0.167,inactive
PLK3,-0.178,0.887,-0.167,inactive

Look-ups from the list:
Result for SHPK under “synergy score with BYL719”: -0.34
GUK1, call: inactive
For “call”, NR4A2 shows inactive
